Test results reported in doi:10.1101/2020.01.28.924217.

Assays:
[1] = target: T1, PfaF (Photobacterium profundum SS9) (UniProt Q6LVL5); assay: DNase I footprinting; conditions: 22 bp protected, -182 to -204 of the promoter probe as stated, coding strand
T1 sequence (looked up, limits assumed): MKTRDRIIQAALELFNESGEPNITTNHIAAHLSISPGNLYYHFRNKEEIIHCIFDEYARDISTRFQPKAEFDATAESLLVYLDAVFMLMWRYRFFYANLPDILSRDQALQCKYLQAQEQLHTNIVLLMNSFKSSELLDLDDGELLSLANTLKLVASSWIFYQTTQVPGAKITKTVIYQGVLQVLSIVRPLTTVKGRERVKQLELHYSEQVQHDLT

[2] = target: T1, PfaF (Photobacterium profundum SS9); assay: competition with a labelled probe; conditions: unlabeled same probe, ~80-fold molar excess, partially reversed binding

AACTGGTCTTAAGTGATCCAACCTCTTGCTCCAGTGATTGTAACGAAAAGCGTCCTCGGGTAGTCTGCTCAACCATTAACTGATTAAGCATGCTTTCATTAGGGATGGTAAGTGCCTCCTTATTTGATAATCGCAGCAGTAGTACAGCAGGATTATGATGGATATTACCGTTACGAATGAAAGCACAACTGTGCATCGTCGAATGTCAAAAAAATGCAGTCATAAATATGCATAATCTTTCTACTCGTACATTCCGAAGCCATGACGCTGCCAATCAATTTTTAGCGCCTGTACTCACACATGCGTTATGCCATTTTTTCACTCTTATTTTTCACCAGTTGCCTAATCGCAACGCCCACACCGAATATATAACGCCCAGCTCTTGGGTGTTAAGCGGAGA (double strand) [pfaA promoter probe (400 bp)]
binding result [1]: binds
binding result [2]: binds

Construct, isoform or probe ends are uncertain for at least one entry. Tags and fusion partners may be left off the protein sequences shown.
